## Results from one PubChem assay

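A panel of P. falciparum strains inside erythrocytes is exposed to compounds for three days, then a DNA-binding dye reports the amount of parasite DNA.
Each compound was titrated across a series from about 0.000037 to 29 µM.
The number is the fitted AC50, the concentration giving a half-maximal change in signal; a lower value means higher potency, whether the curve shows a decrease or an increase.
Calls follow the curve class and fit quality: every row here is inconclusive, covering signal-raising curves and weak, poorly fitted, partial or highest-dose-only inhibition curves.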

Values are in µM.
Every entry below has the call inconclusive.
These entries are mostly ones the record files as inconclusive; other results of the assay are not listed here.
Potencies fitted to partial, single-point or poorly fitting curves are rough.
Some entries filed as inconclusive have a full curve.

For CC1=C[C@@H](O)CC(C)(C)[C@@H]1/C=C/C(C)=C/C=C/C(C)=C/C=C/C=C(C)/C=C/C=C(C)/C=C/C1=C(C)C[C@H](O)CC1(C)C [CP265] the result was potency 11.22 µM (inhibitor, single point). CC1=C[C@@H](O)CC(C)(C)[C@@H]1/C=C/C(C)=C/C=C/C(C)=C/C=C/C=C(C)/C=C/C=C(C)/C=C/C1=C(C)C[C@H](O)CC1(C)C [P93_24] read potency 11.22 µM (inhibitor, single point). For CC1=C[C@@H](O)CC(C)(C)[C@@H]1/C=C/C(C)=C/C=C/C(C)=C/C=C/C=C(C)/C=C/C=C(C)/C=C/C1=C(C)C[C@H](O)CC1(C)C [AA1029] the result was potency 10 µM (inhibitor, single point). Result for CC1=C[C@@H](O)CC(C)(C)[C@@H]1/C=C/C(C)=C/C=C/C(C)=C/C=C/C=C(C)/C=C/C=C(C)/C=C/C1=C(C)C[C@H](O)CC1(C)C [DIV30] was potency 16.94 µM (inhibitor, single point). CC1=C[C@@H](O)CC(C)(C)[C@@H]1/C=C/C(C)=C/C=C/C(C)=C/C=C/C=C(C)/C=C/C=C(C)/C=C/C1=C(C)C[C@H](O)CC1(C)C [parasite line B] gave potency 11.22 µM (inhibitor, single point). CC1=C[C@@H](O)CC(C)(C)[C@@H]1/C=C/C(C)=C/C=C/C(C)=C/C=C/C=C(C)/C=C/C=C(C)/C=C/C1=C(C)C[C@H](O)CC1(C)C [TAB165] gave potency 10 µM (inhibitor, single point). CC1=C[C@@H](O)CC(C)(C)[C@@H]1/C=C/C(C)=C/C=C/C(C)=C/C=C/C=C(C)/C=C/C=C(C)/C=C/C1=C(C)C[C@H](O)CC1(C)C [FAB9] read potency 10 µM (inhibitor, single point). With CC1=C[C@@H](O)CC(C)(C)[C@@H]1/C=C/C(C)=C/C=C/C(C)=C/C=C/C=C(C)/C=C/C=C(C)/C=C/C1=C(C)C[C@H](O)CC1(C)C [PC26] the assay gave potency 19.01 µM (inhibitor, single point).

CC1=C[C@@H](O)CC(C)(C)[C@@H]1/C=C/C(C)=C/C=C/C(C)=C/C=C/C=C(C)/C=C/C=C(C)/C=C/C1=C(C)C[C@H](O)CC1(C)C [CP297] read potency 12 µM (inhibitor, single point). CC1=C[C@@H](O)CC(C)(C)[C@@H]1/C=C/C(C)=C/C=C/C(C)=C/C=C/C=C(C)/C=C/C=C(C)/C=C/C1=C(C)C[C@H](O)CC1(C)C [TAB113] read potency 19.95 µM (inhibitor, single point). COCCCC/C(=N\OCCN)c1ccc(C(F)(F)F)cc1 [C2A] read potency 12.59 µM (inhibitor, partial curve, poor fit). COCCCC/C(=N\OCCN)c1ccc(C(F)(F)F)cc1 [PC15] gave potency 4.467 µM (inhibitor, partial curve). Result for COCCCC/C(=N\OCCN)c1ccc(C(F)(F)F)cc1 [CP260] was potency 5.012 µM (inhibitor, partial curve). COCCCC/C(=N\OCCN)c1ccc(C(F)(F)F)cc1 [TAB109] read potency 6.31 µM (inhibitor, partial curve). Result for COCCCC/C(=N\OCCN)c1ccc(C(F)(F)F)cc1 [CP217] was potency 4.467 µM (inhibitor, partial curve). For COCCCC/C(=N\OCCN)c1ccc(C(F)(F)F)cc1 [CP191] the result was potency 11.22 µM (inhibitor, single point).

With COCCCC/C(=N\OCCN)c1ccc(C(F)(F)F)cc1 [DFO2036] the assay gave potency 10 µM (inhibitor, partial curve). With COCCCC/C(=N\OCCN)c1ccc(C(F)(F)F)cc1 [ECU] the assay gave potency 10 µM (inhibitor, single point). For COCCCC/C(=N\OCCN)c1ccc(C(F)(F)F)cc1 [SC27B] the result was potency 6.31 µM (inhibitor, partial curve). With COCCCC/C(=N\OCCN)c1ccc(C(F)(F)F)cc1 [CP185] the assay gave potency 3.162 µM (inhibitor, full curve, poor fit). COCCCC/C(=N\OCCN)c1ccc(C(F)(F)F)cc1 [TAB113] read potency 5.012 µM (inhibitor, partial curve). COCCCC/C(=N\OCCN)c1ccc(C(F)(F)F)cc1 [AA1029] read potency 5.623 µM (inhibitor, partial curve). Result for COCCCC/C(=N\OCCN)c1ccc(C(F)(F)F)cc1 [CP247] was potency 2.512 µM (inhibitor, full curve).

Once more, the final 3:

structure	condition	potency (µM)	remark
COCCCC/C(=N\OCCN)c1ccc(C(F)(F)F)cc1	TAB113	5.012	inhibitor, partial curve
COCCCC/C(=N\OCCN)c1ccc(C(F)(F)F)cc1	AA1029	5.623	inhibitor, partial curve
COCCCC/C(=N\OCCN)c1ccc(C(F)(F)F)cc1	CP247	2.512	inhibitor, full curve

Data taken from PubChem BioAssay AID504749, deposited by NCATS (2011).